Article PMC6639074
These are yes or no findings as the source states them, for the method shown. In cells and extracts the contact can be indirect. Here binding means that the protein was enriched with, or labelled near, the bait; the list need not be complete.

The chains behind the UniProt entries cited, without tags or fusion partners. Where a name states a change or a piece, a line headed by the entry shows the natural chain unless it says otherwise. A line that says so, or that is headed by a name, gives the form on record, which may keep a tag or linker.
UniProt P60953: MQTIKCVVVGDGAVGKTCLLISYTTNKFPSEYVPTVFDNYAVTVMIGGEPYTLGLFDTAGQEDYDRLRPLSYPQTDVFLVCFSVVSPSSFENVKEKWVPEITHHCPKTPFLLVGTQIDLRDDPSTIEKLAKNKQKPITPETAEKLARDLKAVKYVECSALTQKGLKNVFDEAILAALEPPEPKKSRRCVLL
Rab5A(S34N)-BirA*-HA-MAO (P20339, form named): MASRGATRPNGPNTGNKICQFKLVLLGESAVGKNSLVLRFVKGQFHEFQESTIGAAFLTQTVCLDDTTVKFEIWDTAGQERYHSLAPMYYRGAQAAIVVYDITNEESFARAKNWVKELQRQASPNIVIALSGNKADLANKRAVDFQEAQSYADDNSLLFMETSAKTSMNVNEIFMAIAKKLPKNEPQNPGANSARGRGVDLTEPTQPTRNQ
Rab5A(Q79L)-BirA*-HA-MAO (P20339, form named): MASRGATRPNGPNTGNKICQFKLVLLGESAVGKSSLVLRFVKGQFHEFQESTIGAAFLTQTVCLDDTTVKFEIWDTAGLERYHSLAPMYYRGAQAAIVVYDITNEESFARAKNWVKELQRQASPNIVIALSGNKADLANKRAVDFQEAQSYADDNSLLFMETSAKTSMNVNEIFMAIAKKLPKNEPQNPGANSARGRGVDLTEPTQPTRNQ
UniProt P61586: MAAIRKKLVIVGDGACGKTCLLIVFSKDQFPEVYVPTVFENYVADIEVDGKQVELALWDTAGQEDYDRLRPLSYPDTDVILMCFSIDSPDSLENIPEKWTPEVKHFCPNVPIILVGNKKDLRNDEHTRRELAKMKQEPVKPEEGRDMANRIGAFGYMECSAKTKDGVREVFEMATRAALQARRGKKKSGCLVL

What was measured:
Assay in all cases: proximity labelling; MitoID: GTPase-BirA*-HA-MAO chimera on mitochondria of transiently transfected HEK293T cells, 50 uM biotin 18 h, streptavidin beads, mass spectrometry, biological triplicates; hits by WD scores and volcano plots against the GDP-locked forms
[1] = molecular target: Cdc42(T17N)-BirA*-HA-MAO (human) (UniProt P60953)
[2] = molecular target: Rab5A(S34N)-BirA*-HA-MAO (human) (UniProt P20339)
[3] = molecular target: Rab5A(Q79L)-BirA*-HA-MAO (human) (UniProt P20339)
[4] = molecular target: RhoA(Q63L)-BirA*-HA-MAO (human) (UniProt P61586)

| Binder | binding [1] | binding [2] | further results |
| --- | --- | --- | --- |
| LRCH2 (protein, UniProt Q5VUJ6 1-765) MAASQGGGGNSGGGGCGGGGSSGGCGTAGGGGGGAGGGGGGGGGTLVVPIPVPTLFGQPFPNGPPWNPGSLQPQHTVRSLDRALEEAGSSGILSLSGRKLRDFPGSGYDLTDTTQADLSRNRFTEIPSDVWLFAPLETLNLYHNCIKTIPEAIKNLQMLTYLNISRNLLSTLPKYLFDLPLKVLVVSNNKLVSIPEEIGKLKDLMELDISCNEIQVLPQQMGKLHSLRELNIRRNNLHVLPDELGDLPLVKLDFSCNKVTEIPVCYRKLHHLQVIILDNNPLQVPPAQICLKGKVHIFKYLNIQACCRMDKKPDSLDLPSLSKRMPSQPLTDSMEDFYPNKNHGPDSGIGSDNGEKRLSTTEPSDDDTVSLHSQVSESNREQTSRNDSHIIGSKTDSQKDQEVYDFVDPNTEDVAVPEQGNAHIGSFVSFFKGKEKCSEKSRKNEELGDEKRLEKEQLLAEEEDDDLKEVTDLRKIAAQLLQQEQKNRILNHSTSVMRNKPKQTVECEKSVSADEVNSPLSPLTWQPLENQKDQIDEQPWPESHPIIWQSEERRRSKQIRKEYFKYKSMRKSSSGNENDEQDSDNANMSTQSPVSSEEYDRTDGFSHSPFGLKPRSAFSRSSRQEYGAADPGFTMRRKMEHLREEREQIRQLRNNLESRLKVILPDDIGAALMDGVVLCHLANHIRPRSVASIHVPSPAVPKLSMAKCRRNVENFLDACKKLGVSQERLCLPHHILEERGLVKVGVTVQALLELPTTKASQLSVA | binds |  |  |
| GAPVD1/Rme-6 (protein, UniProt Q14C86 1-1478) MVKLDIHTLAHHLKQERLYVNSEKQLIQRLNADVLKTAEKLYRTAWIAKQQRINLDRLIITSAEASPAECCQHAKILEDTQFVDGYKQLGFQETAYGEFLSRLRENPRLIASSLVAGEKLNQENTQSVIYTVFTSLYGNCIMQEDESYLLQVLRYLIEFELKESDNPRRLLRRGTCAFSILFKLFSEGLFSAKLFLTATLHEPIMQLLVEDEDHLETDPNKLIERFSPSQQEKLFGEKGSDRFRQKVQEMVESNEAKLVALVNKFIGYLKQNTYCFPHSLRWIVSQMYKTLSCVDRLEVGEVRAMCTDLLLACFICPAVVNPEQYGIISDAPINEVARFNLMQVGRLLQQLAMTGSEEGDPRTKSSLGKFDKSCVAAFLDVVIGGRAVETPPLSSVNLLEGLSRTVVYITYSQLITLVNFMKSVMSGDQLREDRMALDNLLANLPPAKPGKSSSLEMTPYNTPQLSPATTPANKKNRLPIATRSRSRTNMLMDLHMDHEGSSQETIQEVQPEEVLVISLGTGPQLTPGMMSENEVLNMQLSDGGQGDVPVDENKLHGKPDKTLRFSLCSDNLEGISEGPSNRSNSVSSLDLEGESVSELGAGPSGSNGVEALQLLEHEQATTQDNLDDKLRKFEIRDMMGLTDDRDISETVSETWSTDVLGSDFDPNIDEDRLQEIAGAAAENMLGSLLCLPGSGSVLLDPCTGSTISETTSEAWSVEVLPSDSEAPDLKQEERLQELESCSGLGSTSDDTDVREVSSRPSTPGLSVVSGISATSEDIPNKIEDLRSECSSDFGGKDSVTSPDMDEITHGAHQLTSPPSQSESLLAMFDPLSSHEGASAVVRPKVHYARPSHPPPDPPILEGAVGGNEARLPNFGSHVLTPAEMEAFKQRHSYPERLVRSRSSDIVSSVRRPMSDPSWNRRPGNEERELPPAAAIGATSLVAAPHSSSSSPSKDSSRGETEERKDSDDEKSDRNRPWWRKRFVSAMPKAPIPFRKKEKQEKDKDDLGPDRFSTLTDDPSPRLSAQAQVAEDILDKYRNAIKRTSPSDGAMANYESTGDNHDRDLSSKLLYHSDKEVMGDGESAHDSPRDEALQNISADDLPDSASQAAHPQDSAFSYRDAKKKLRLALCSADSVAFPVLTHSTRNGLPDHTDPEDNEIVCFLKVQIAEAINLQDKNLMAQLQETMRCVCRFDNRTCRKLLASIAEDYRKRAPYIAYLTRCRQGLQTTQAHLERLLQRVLRDKEVANRYFTTVCVRLLLESKEKKIREFIQDFQKLTAADDKTAQVEDFLQFLYGAMAQDVIWQNASEEQLQDAQLAIERSVMNRIFKLAFYPNQDGDILRDQVLHEHIQRLSKVVTANHRALQIPEVYLREAPWPSAQSEIRTISAYKTPRDKVQCILRMCSTIMNLLSLANEDSVPGADDFVPVLVFVLIKANPPCLLSTVQYISSFYASCLSGEESYWWMQFTAAVEFIKTIDDRK |  | binds |  |
| FBXL4 (protein, UniProt Q9UKA2 1-621) MSPVFPMLTVLTMFYYICLRRRARTATRGEMMNTHRAIESNSQTSPLNAEVVQYAKEVVDFSSHYGSENSMSYTMWNLAGVPNVFPSSGDFTQTAVFRTYGTWWDQCPSASLPFKRTPPNFQSQDYVELTFEQQVYPTAVHVLETYHPGAVIRILACSANPYSPNPPAEVRWEILWSERPTKVNASQARQFKPCIKQINFPTNLIRLEVNSSLLEYYTELDAVVLHGVKDKPVLSLKTSLIDMNDIEDDAYAEKDGCGMDSLNKKFSSAVLGEGPNNGYFDKLPYELIQLILNHLTLPDLCRLAQTCKLLSQHCCDPLQYIHLNLQPYWAKLDDTSLEFLQSRCTLVQWLNLSWTGNRGFISVAGFSRFLKVCGSELVRLELSCSHFLNETCLEVISEMCPNLQALNLSSCDKLPPQAFNHIAKLCSLKRLVLYRTKVEQTALLSILNFCSELQHLSLGSCVMIEDYDVIASMIGAKCKKLRTLDLWRCKNITENGIAELASGCPLLEELDLGWCPTLQSSTGCFTRLAHQLPNLQKLFLTANRSVCDTDIDELACNCTRLQQLDILGTRMVSPASLRKLLESCKDLSLLDVSFCSQIDNRAVLELNASFPKVFIKKSFTQ |  | binds | binding [3]: binds |
| ARHGAP35/p190RhoGAP (protein, UniProt Q9NRY4 1-1499) MMMARKQDVRIPTYNISVVGLSGTEKEKGQCGIGKSCLCNRFVRPSADEFHLDHTSVLSTSDFGGRVVNNDHFLYWGEVSRSLEDCVECKMHIVEQTEFIDDQTFQPHRSTALQPYIKRAAATKLASAEKLMYFCTDQLGLEQDFEQKQMPDGKLLVDGFLLGIDVSRGMNRNFDDQLKFVSNLYNQLAKTKKPIVVVLTKCDEGVERYIRDAHTFALSKKNLQVVETSARSNVNVDLAFSTLVQLIDKSRGKTKIIPYFEALKQQSQQIATAKDKYEWLVSRIVKNHNENWLSVSRKMQASPEYQDYVYLEGTQKAKKLFLQHIHRLKHEHIERRRKLYLAALPLAFEALIPNLDEIDHLSCIKAKKLLETKPEFLKWFVVLEETPWDATSHIDNMENERIPFDLMDTVPAEQLYEAHLEKLRNERKRVEMRRAFKENLETSPFITPGKPWEEARSFIMNEDFYQWLEESVYMDIYGKHQKQIIDKAKEEFQELLLEYSELFYELELDAKPSKEKMGVIQDVLGEEQRFKALQKLQAERDALILKHIHFVYHPTKETCPSCPACVDAKIEHLISSRFIRPSDRNQKNSLSDPNIDRINLVILGKDGLARELANEIRALCTNDDKYVIDGKMYELSLRPIEGNVRLPVNSFQTPTFQPHGCLCLYNSKESLSYVVESIEKSRESTLGRRDNHLVHLPLTLILVNKRGDTSGETLHSLIQQGQQIASKLQCVFLDPASAGIGYGRNINEKQISQVLKGLLDSKRNLNLVSSTASIKDLADVDLRIVMCLMCGDPFSADDILFPVLQSQTCKSSHCGSNNSVLLELPIGLHKKRIELSVLSYHSSFSIRKSRLVHGYIVFYSAKRKASLAMLRAFLCEVQDIIPIQLVALTDGAVDVLDNDLSREQLTEGEEIAQEIDGRFTSIPCSQPQHKLEIFHPFFKDVVEKKNIIEATHMYDNAAEACSTTEEVFNSPRAGSPLCNSNLQDSEEDIEPSYSLFREDTSLPSLSKDHSKLSMELEGNDGLSFIMSNFESKLNNKVPPPVKPKPPVHFEITKGDLSYLDQGHRDGQRKSVSSSPWLPQDGFDPSDYAEPMDAVVKPRNEEENIYSVPHDSTQGKIITIRNINKAQSNGSGNGSDSEMDTSSLERGRKVSIVSKPVLYRTRCTRLGRFASYRTSFSVGSDDELGPIRKKEEDQASQGYKGDNAVIPYETDEDPRRRNILRSLRRNTKKPKPKPRPSITKATWESNYFGVPLTTVVTPEKPIPIFIERCIEYIEATGLSTEGIYRVSGNKSEMESLQRQFDQDHNLDLAEKDFTVNTVAGAMKSFFSELPDPLVPYNMQIDLVEAHKINDREQKLHALKEVLKKFPKENHEVFKYVISHLNKVSHNNKVNLMTSENLSICFWPTLMRPDFSTMDALTATRTYQTIIELFIQQCPFFFYNRPITEPPGARPSSPSAVASTVPFLTSTPVTSQPSPPQSPPPTPQSPMQPLLPSQLQAEHTL |  |  | binding [4]: binds |

Now from value to binder, other results behind:

| binding [1] | binding [2] | Binder | further results |
| --- | --- | --- | --- |
| binds |  | PDLIM4 (protein, UniProt P50479 1-330) MPHSVTLRGPSPWGFRLVGGRDFSAPLTISRVHAGSKAALAALCPGDLIQAINGESTELMTHLEAQNRIKGCHDHLTLSVSRPEGRSWPSAPDDSKAQAHRIHIDPEIQDGSPTTSRRPSGTGTGPEDGRPSLGSPYGQPPRFPVPHNGSSEATLPAQMSTLHVSPPPSADPARGLPRSRDCRVDLGSEVYRMLREPAEPVAAEPKQSGSFRYLQGMLEAGEGGDWPGPGGPRNLKPTASKLGAPLSGLQGLPECTRCGHGIVGTIVKARDKLYHPECFMCSDCGLNLKQRGYFFLDERLYCESHAKARVKPPEGYDVVAVYPNAKVELV |  |
| binds |  | LRCH3 (protein, UniProt Q96II8 1-777) MAAAGLVAVAAAAEYSGTVASGGNLPGVHCGPSSGAGPGFGPGSWSRSLDRALEEAAVTGVLSLSGRKLREFPRGAANHDLTDTTRADLSRNRLSEIPIEACHFVSLENLNLYQNCIRYIPEAILNLQALTFLNISRNQLSTLPVHLCNLPLKVLIASNNKLVSLPEEIGHLRHLMELDVSCNEIQTIPSQIGNLEALRDLNVRRNHLVHLPEELAELPLIRLDFSCNKITTIPVCYRNLRHLQTITLDNNPLQSPPAQICIKGKVHIFKYLNIQACKIAPDLPDYDRRPLGFGSCHEELYSSRPYGALDSGFNSVDSGDKRWSGNEPTDEFSDLPLRVAEITKEQRLRRESQYQENRGSLVVTNGGVEHDLDQIDYIDSCTAEEEEAEVRQPKGPDPDSLSSQFMAYIEQRRISHEGSPVKPVAIREFQKTEDMRRYLHQNRVPAEPSSLLSLSASHNQLSHTDLELHQRREQLVERTRREAQLAALQYEEEKIRTKQIQRDAVLDFVKQKASQSPQKQHPLLDGVDGECPFPSRRSQHTDDSALCMSLSGLNQVGCAATLPHSSAFTPLKSDDRPNALLSSPATETVHHSPAYSFPAAIQRNQPQRPESFLFRAGVRAETNKGHASPLPPSAAPTTDSTDSITGQNSRQREEELELIDQLRKHIEYRLKVSLPCDLGAALTDGVVLCHLANHVRPRSVPSIHVPSPAVPKLTMAKCRRNVENFLEACRKIGVPQEQLCLPLHILEEKGLSQVAVTVQALLELAPPKQQQHQLSAV |  |
